The supplement of paper PMC7830784
Values joined by “and” are separate entries in the source; they are usually repeats but may differ in a detail not shown here. Equal entries are not always repeated. Structures can show the parent of a compound that is named as a salt. Some of the results follow. Most values lie within the scatter of the assay; repeated measurements hardly agree. Starred links: 1 amine or outer side, 2 acyl side, 3 side chain; linkers in the order of their positions; H or OH if unused. Positions of bridges follow the written chain, without caps; N, C: chain ends. Non-standard residues stand in square brackets, D forms with d. Residues, ends and D or L forms follow the SMILES beside them. Chains are numbered I, II in the order given. Actinocin(9to1) = Cc1c2oc3c(C)ccc(C(=O)[*:1])c3nc-2c(C(=O)[*:2])c(N)c1=O; NMeV = CN[C@H](C(=O)O)C(C)C; Sar = CNCC(=O)O

Each compound was assayed on Brugia pahangi adult female (assay: motility inhibition on day 3 relative to DMSO vehicle; higher = more active). Details: 10 µM; 3 days.
`CN(C)CCC(c1ccccc1)c1ccccn1` (stereo not given) [pheniramine maleate] was tested, and the “motility inhibition on day 3” value was 8.93%.
With `CCSc1ccc2c(c1)N(CCCN1CCN(C)CC1)c1ccccc1S2` [Thiethylperazine maleate] the “motility inhibition on day 3” value was 11.2%.
With `C#CC1(O)CC[C@H]2[C@@H]3CCC4=CC(=O)CC[C@@H]4[C@H]3CC[C@@]21CC` (mixture of isomers) [norgestrel] the “motility inhibition on day 3” value was 42% and 32.9%.
For `CC(=O)OCC(=O)[C@@]12OC3(CCCC3)O[C@@H]1C[C@H]1[C@@H]3CCC4=CC(=O)C=C[C@]4(C)[C@@]3(F)[C@@H](O)C[C@@]12C` [amcinonide], the “motility inhibition on day 3” value was under 0%.
In the case of `C=COCC(F)(F)F` [fluroxene], the “motility inhibition on day 3” value is reported as 31.1%.
With `Cc1oc(=O)oc1CN1CCN(c2cc3c(cc2F)c(=O)c(C(=O)O)c2n3C(C)S2)CC1` (stereo not given) [prulifloxacin] the “motility inhibition on day 3” value was 13.9%.
In the case of `N[C@@H](CC(=O)N1CCn2c(nnc2C(F)(F)F)C1)Cc1cc(F)c(F)cc1F` [sitagliptin monophosphate monohydrate], the “motility inhibition on day 3” value is reported as 11.6%.
In the case of `CC#CCC(C)[C@H](O)/C=C/[C@@H]1[C@H]2C/C(=C/CCCC(=O)O)C[C@H]2C[C@H]1O` (stereo not given in full) [Iloprost], the “motility inhibition on day 3” value is reported as 20.5%.
With `N=C(N)c1ccc(N=NNc2ccc(C(=N)N)cc2)cc1` [diminazene aceturate] the “motility inhibition on day 3” value was under 0%.
`O=C(Nc1ccccc1)OCC(CN1CCCCC1)OC(=O)Nc1ccccc1` (stereo not given) [diperodon hydrochloride] was tested, and the “motility inhibition on day 3” value was 8.79%.
In the case of `CO/N=C(\C(=O)N[C@@H]1C(=O)N2C(C(=O)O)=C(CSC(=O)c3ccco3)CS[C@H]12)c1csc(N)n1` [ceftiofur hydrochloride], the “motility inhibition on day 3” value is reported as under 0%.
With `C[C@@H]1O[C@@H](OC[C@H]2O[C@@H](Oc3c(-c4ccc(O)c(O)c4)oc4cc(O)cc(O)c4c3=O)[C@H](O)[C@@H](O)[C@@H]2O)[C@H](O)[C@H](O)[C@H]1O` [rutin] the “motility inhibition on day 3” value was 1.69%.
With `CCCC(=O)Nc1ccc(OCC(O)CNC(C)C)c(C(C)=O)c1` (stereo not given) [acebutolol hydrochloride] the “motility inhibition on day 3” value was under 0%.
In the case of `CCCCC[C@H](O)CC[C@@H]1[C@H]2Cc3cccc(OCC(=O)O)c3C[C@H]2C[C@H]1O` [Treprostinil], the “motility inhibition on day 3” value is reported as 32.8%.
In the case of `CC1=CC(=O)c2ccccc2C1=O` [menadione], the “motility inhibition on day 3” value is reported as 98.9%.
`CCCCC[C@](C)(O)/C=C/[C@@H]1[C@@H](C/C=C\CCCC(=O)O)[C@@H](O)C[C@H]1O` [Carboprost] was tested, and the “motility inhibition on day 3” value was under 0%.
`CC(=O)/N=c1/sc(S(N)(=O)=O)nn1C` [methazolamide] was tested, and the “motility inhibition on day 3” value was 6.94%.
With `N=C(N)N1CCc2ccccc2C1` [Debrisoquin sulfate] the “motility inhibition on day 3” value was 17.1%.
With `CCCc1nc2c(C)cc(-c3nc4ccccc4n3C)cc2n1Cc1ccc(-c2ccccc2C(=O)O)cc1` [telmisartan] the “motility inhibition on day 3” value was 1.91%.
With `COCCCOc1cc(C[C@@H](C[C@H](N)[C@@H](O)C[C@H](C(=O)NCC(C)(C)C(N)=O)C(C)C)C(C)C)ccc1OC` [aliskiren hemifumarate] the “motility inhibition on day 3” value was 14.8%.
With `C#C[C@]1(OC(C)=O)CC[C@H]2[C@@H]3CCC4=CC(=O)CC[C@@H]4[C@H]3CC[C@@]21C` [norethindrone acetate] the “motility inhibition on day 3” value was 53.3%.
`CCCCOC(=O)c1ccc(O)cc1` [butyl paraben] was tested, and the “motility inhibition on day 3” value was 24.4%.
`CCCCC1C(=O)N(c2ccccc2)N(c2ccccc2)C1=O` [Phenylbutazone] was tested, and the “motility inhibition on day 3” value was 19.3%.
For `O=C(CCCCC(=O)Nc1c(I)cc(I)c(C(=O)O)c1I)Nc1c(I)cc(I)c(C(=O)O)c1I` [iodipamide], the “motility inhibition on day 3” value was 30.5%.
In the case of `CNCC[C@@H](Oc1ccccc1C)c1ccccc1` [atomoxetine hydrochloride], the “motility inhibition on day 3” value is reported as under 0%.
For `Cc1ccc(C(=O)C(C)CN2CCCCC2)cc1` (stereo not given) [tolperisone hydrochloride], the “motility inhibition on day 3” value was 7.82%.
In the case of `COCCCOc1ccnc(C[S+]([O-])c2nc3ccccc3[nH]2)c1C` (stereo not given) [rabeprazole sodium], the “motility inhibition on day 3” value is reported as under 0%.
In the case of `CC(Cc1ccc(O)c(O)c1)C(C)Cc1ccc(O)c(O)c1` (stereo not given) [Nordihydroguaiaretic acid], the “motility inhibition on day 3” value is reported as under 0%.
`CC[C@H](C)C(=O)O[C@H]1C[C@H](O)C=C2C=C[C@H](C)[C@H](CC[C@@H](O)C[C@@H](O)CC(=O)O)[C@H]21` [pravastatin sodium] was tested, and the “motility inhibition on day 3” value was 13.7%.
With `CC1=C(C(=O)O)N2C(=O)[C@@H](NC(=O)[C@H](N)c3ccccc3)[C@H]2SC1` [cephalexin] the “motility inhibition on day 3” value was 12.6%.
In the case of `CC(C)(C)NCC(O)COc1cccc2c1CC(O)C(O)C2` (stereo not given) [nadolol], the “motility inhibition on day 3” value is reported as under 0%.
In the case of `O=C(c1cccnc1)N1CCOCC1` [nicopholine], the “motility inhibition on day 3” value is reported as 38.3%.
With `OCC(S)CS` (stereo not given) [dimercaptopropanol] the “motility inhibition on day 3” value was under 0%.
For `COc1ccc2cc3[n+](cc2c1OC)CCc1cc2c(cc1-3)OCO2` [berberine chloride], the “motility inhibition on day 3” value was 16.5%.
`Cc1c2oc3c(C)ccc(C(=O)N[C@@H]4C(=O)N[C@H](C(C)C)C(=O)N5CCC[C@H]5C(=O)N(C)CC(=O)N(C)[C@@H](C(C)C)C(=O)O[C@@H]4C)c3nc-2c(C(=O)N[C@@H]2C(=O)N[C@H](C(C)C)C(=O)N3CCC[C@H]3C(=O)N(C)CC(=O)N(C)[C@@H](C(C)C)C(=O)O[C@@H]2C)c(N)c1=O` (I: T[dV]P[Sar][NMeV] / II: T[dV]P[Sar][NMeV]; ester I:1-I:C, II:1-II:C; linker I:N-II:N via Actinocin(9to1)) was tested, and the “motility inhibition on day 3” value was 16.2%.
For `Cc1c2oc3c(C)ccc(C(=O)N[C@@H]4C(=O)N[C@H](C(C)C)C(=O)N5CCC[C@H]5C(=O)N(C)CC(=O)N(C)[C@@H](C(C)C)C(=O)O[C@@H]4C)c3nc-2c(C(=O)N[C@@H]2C(=O)N[C@H](C(C)C)C(=O)N3CCC[C@H]3C(=O)N(C)CC(=O)N(C)[C@@H](C(C)C)C(=O)O[C@@H]2C)c(N)c1=O` [dactinomycin] (I: T[dV]P[Sar][NMeV] / II: T[dV]P[Sar][NMeV]; ester I:1-I:C, II:1-II:C; linker I:N-II:N via Actinocin(9to1)), the “motility inhibition on day 3” value was 13.5%.
`COc1ccc2c(c1)c(CC(=O)OCC(=O)O)c(C)n2C(=O)c1ccc(Cl)cc1` [acemetacin] was tested, and the “motility inhibition on day 3” value was under 0%.
With `Cc1nccn1CC1CCc2c(c3ccccc3n2C)C1=O` (stereo not given) [ondansetron] the “motility inhibition on day 3” value was 8.96%.
`NC(=O)c1cc[n+](CC2=C(C(=O)[O-])N3C(=O)[C@@H](NC(=O)Cc4cccs4)[C@H]3SC2)cc1` [cefalonium] was tested, and the “motility inhibition on day 3” value was 2.55%.
`O=C1C(O)=C(O)C(=O)C(O)=C1O` [tetroquinone] was tested, and the “motility inhibition on day 3” value was under 0%.
`CC(=O)NC[C@H]1CN(c2ccc(N3CCOCC3)c(F)c2)C(=O)O1` [linezolid] was tested, and the “motility inhibition on day 3” value was 6.39%.
For `CC(=O)O[C@]1(C(C)=O)CC[C@H]2[C@@H]3C=C(C)C4=CC(=O)CC[C@]4(C)[C@H]3CC[C@@]21C` [megestrol acetate], the “motility inhibition on day 3” value was under 0%.
With `Cc1c(C)c2c(c(C)c1O)CCC(C)(CCCC(C)CCCC(C)CCCC(C)C)O2` (stereo not drawn) [alpha-tochopherol] the “motility inhibition on day 3” value was 1.16%.
`Nc1nc(=O)[nH]cc1F` [flucytosine] was tested, and the “motility inhibition on day 3” value was 2.86%.
`Nc1nnc(-c2cccc(Cl)c2Cl)c(N)n1` [lamotrigine] was tested, and the “motility inhibition on day 3” value was 1.22%.
With `CC[C@@]1(O)C(=O)OCc2c1cc1n(c2=O)Cc2cc3c(CN(C)C)c(O)ccc3nc2-1` [topotecan hydrochloride] the “motility inhibition on day 3” value was 12.5%.
With `CCOc1cc(N)c([N+](=O)[O-])cc1C(=O)NC1CCN(CC2CC=CCC2)CC1` (stereo not given) [Cinitapride] the “motility inhibition on day 3” value was under 0%.
In the case of `Cc1nnc(SCC2=C(C(=O)O)N3C(=O)[C@@H](NC(=O)Cn4cnnn4)[C@H]3SC2)s1` [cefazolin sodium], the “motility inhibition on day 3” value is reported as under 0%.
For `O=c1[nH]c(=O)n([C@H]2C[C@H](O)[C@@H](CO)O2)cc1C(F)(F)F` [trifluridine], the “motility inhibition on day 3” value was under 0%.
With `COc1ccc2c3c1O[C@H]1C[C@@H](O)C=C[C@@]31CCN(C)C2` [galanthamine hydrobromide] the “motility inhibition on day 3” value was 14.6%.
For `CCCC(=O)O[C@]1(C(=O)CO)CC[C@H]2[C@@H]3CCC4=CC(=O)CC[C@]4(C)[C@H]3[C@@H](O)C[C@@]21C` [hydrocortisone butyrate], the “motility inhibition on day 3” value was under 0%.
With `CC1(C)S[C@@H]2[C@H](NC(=O)COc3ccccc3)C(=O)N2[C@H]1C(=O)O` [penicillin v potassium] the “motility inhibition on day 3” value was 7.18%.
`CC(C)NC(=N)NC(=N)Nc1ccc(Cl)cc1` [chlorguanide hydrochloride] was tested, and the “motility inhibition on day 3” value was 29%.
`CN(C)CC[C@@H](c1ccc(Br)cc1)c1ccccn1` was tested, and the “motility inhibition on day 3” value was 4.43%.
`CN(Cc1ccc(C(C)(C)C)cc1)Cc1cccc2ccccc12` [butenafine hydrochloride] was tested, and the “motility inhibition on day 3” value was 9.77%.
For `CCCCCCCCNC(C)C(O)c1ccc(SC(C)C)cc1` (stereo not given) [suloctidil], the “motility inhibition on day 3” value was 98.7%.
With `C[C@H]1O[C@@H](O[C@H]2[C@@H](O)C[C@H](O[C@H]3[C@@H](O)C[C@H](O[C@H]4CC[C@@]5(C)[C@H](CC[C@@H]6[C@@H]5CC[C@]5(C)[C@@H](C7=CC(=O)OC7)CC[C@]65O)C4)O[C@@H]3C)O[C@@H]2C)C[C@H](O)[C@@H]1O` [digitoxin] the “motility inhibition on day 3” value was 3.31%.
With `CC(=O)CC(c1ccc([N+](=O)[O-])cc1)c1c(O)c2ccccc2oc1=O` (stereo not given) [acenocoumarol] the “motility inhibition on day 3” value was under 0%.
With `S=c1[nH]cnc2nc[nH]c12` [mercaptopurine] the “motility inhibition on day 3” value was 10.7%.
In the case of `Cc1cccc(Nc2ccncc2S(=O)(=O)NC(=O)NC(C)C)c1` [torsemide], the “motility inhibition on day 3” value is reported as 3.49%.
For `O=C(O)CCCC[C@@H]1CCSS1` [thioctic acid], the “motility inhibition on day 3” value was under 0%.
In the case of `COc1cc(NS(=O)(=O)c2ccc(N)cc2)nc(OC)n1` [sulfadimethoxine], the “motility inhibition on day 3” value is reported as 27.7%.
For `CC[N+](CC)(CC(=O)Nc1c(C)cccc1C)Cc1ccccc1` [denatonium benzoate], the “motility inhibition on day 3” value was 28.9%.
In the case of `CC1(C)O[C@@H]2[C@@H](CO[C@@]3(COS(N)(=O)=O)OC(C)(C)O[C@@H]23)O1` [topiramate], the “motility inhibition on day 3” value is reported as 4.78%.
In the case of `CN(C)c1cc(NC(=O)CNC(C)(C)C)c(O)c2c1C[C@H]1C[C@H]3[C@H](N(C)C)C(O)=C(C(N)=O)C(=O)[C@@]3(O)C(O)=C1C2=O` [tigecycline], the “motility inhibition on day 3” value is reported as 23%.
